Test results: the supplement of paper PMC12823440, “Inhibitors supercharge kinase turnover through native proteolytic circuits” (Nature, 2025)
Where a name gives a salt, the structure may show the parent alone. The list shows a part of the results. The calls rarely recur for the same compound in another form.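 Kinases, fused to nanoluciferase, were expressed in K562 cells; luminescence was measured every 4 h from 2 to 18 h as percent of control (DMSO = 100%, positive control = 0%). A time point is decreased if signal falls significantly (2 sigma). Hits were called by the authors by a rule that is not shown; the count of time points alone does not decide it.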

By UniProt entry, the sequences of proteins in these tests, tags left out. Where a name states a change or a piece, a line headed by the entry shows the natural chain unless it says otherwise.
UniProt P07947, whole entry, looked up: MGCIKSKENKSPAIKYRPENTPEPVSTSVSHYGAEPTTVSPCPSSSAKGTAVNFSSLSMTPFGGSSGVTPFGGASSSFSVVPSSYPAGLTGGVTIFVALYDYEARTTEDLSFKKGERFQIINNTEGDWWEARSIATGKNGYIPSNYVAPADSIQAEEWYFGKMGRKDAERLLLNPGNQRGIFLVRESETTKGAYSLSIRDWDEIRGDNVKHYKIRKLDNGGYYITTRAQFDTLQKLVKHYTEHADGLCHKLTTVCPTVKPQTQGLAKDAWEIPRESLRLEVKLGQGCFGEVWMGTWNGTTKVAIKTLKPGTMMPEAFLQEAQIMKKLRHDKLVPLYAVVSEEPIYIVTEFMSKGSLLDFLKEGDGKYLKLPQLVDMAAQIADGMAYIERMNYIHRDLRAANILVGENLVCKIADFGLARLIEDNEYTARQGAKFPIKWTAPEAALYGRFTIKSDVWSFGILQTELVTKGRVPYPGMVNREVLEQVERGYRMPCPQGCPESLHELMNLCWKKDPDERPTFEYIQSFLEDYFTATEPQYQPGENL
UniProt P43403: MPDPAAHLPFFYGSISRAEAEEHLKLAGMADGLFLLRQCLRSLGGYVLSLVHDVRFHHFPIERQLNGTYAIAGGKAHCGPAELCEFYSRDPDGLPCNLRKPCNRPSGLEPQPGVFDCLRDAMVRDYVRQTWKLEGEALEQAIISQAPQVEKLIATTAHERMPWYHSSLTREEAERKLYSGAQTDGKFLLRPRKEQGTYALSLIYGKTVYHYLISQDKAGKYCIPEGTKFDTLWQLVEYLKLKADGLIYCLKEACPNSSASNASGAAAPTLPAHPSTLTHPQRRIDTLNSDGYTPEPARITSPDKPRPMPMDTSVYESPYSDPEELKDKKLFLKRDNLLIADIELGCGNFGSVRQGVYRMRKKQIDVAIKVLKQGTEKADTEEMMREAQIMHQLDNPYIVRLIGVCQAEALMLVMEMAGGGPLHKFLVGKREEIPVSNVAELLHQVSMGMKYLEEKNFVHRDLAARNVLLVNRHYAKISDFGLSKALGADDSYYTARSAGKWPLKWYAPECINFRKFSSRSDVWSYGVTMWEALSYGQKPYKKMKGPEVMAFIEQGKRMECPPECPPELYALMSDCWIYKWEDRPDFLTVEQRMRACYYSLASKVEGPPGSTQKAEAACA
UniProt P11802: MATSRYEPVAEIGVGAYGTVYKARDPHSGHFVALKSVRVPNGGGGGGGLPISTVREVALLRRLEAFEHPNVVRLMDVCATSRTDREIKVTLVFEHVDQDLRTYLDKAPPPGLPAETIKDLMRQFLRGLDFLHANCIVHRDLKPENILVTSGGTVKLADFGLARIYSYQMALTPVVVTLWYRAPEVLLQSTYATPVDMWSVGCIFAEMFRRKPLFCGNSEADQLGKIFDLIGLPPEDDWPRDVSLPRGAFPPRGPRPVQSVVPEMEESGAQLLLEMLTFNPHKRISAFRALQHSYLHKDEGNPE
UniProt P50613: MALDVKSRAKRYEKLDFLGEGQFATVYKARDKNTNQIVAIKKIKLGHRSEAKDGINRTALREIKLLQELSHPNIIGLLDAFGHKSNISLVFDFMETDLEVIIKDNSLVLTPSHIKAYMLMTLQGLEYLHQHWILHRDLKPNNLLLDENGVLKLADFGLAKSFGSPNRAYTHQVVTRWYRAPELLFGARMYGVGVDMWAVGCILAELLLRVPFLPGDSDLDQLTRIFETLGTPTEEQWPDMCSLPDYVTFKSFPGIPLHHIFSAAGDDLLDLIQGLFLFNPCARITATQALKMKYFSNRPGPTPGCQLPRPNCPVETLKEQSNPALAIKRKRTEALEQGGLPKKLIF
UniProt P50750, whole entry: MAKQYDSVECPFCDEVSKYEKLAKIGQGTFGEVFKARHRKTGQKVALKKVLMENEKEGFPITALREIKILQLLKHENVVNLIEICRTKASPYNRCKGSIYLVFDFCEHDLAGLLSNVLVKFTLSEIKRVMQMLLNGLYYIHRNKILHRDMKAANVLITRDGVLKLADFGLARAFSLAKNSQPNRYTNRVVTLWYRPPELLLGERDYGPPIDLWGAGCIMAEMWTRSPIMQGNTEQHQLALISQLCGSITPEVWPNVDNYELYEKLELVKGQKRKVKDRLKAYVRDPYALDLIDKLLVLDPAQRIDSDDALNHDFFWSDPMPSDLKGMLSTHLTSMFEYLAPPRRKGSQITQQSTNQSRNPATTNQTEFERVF

Assays:
Settings in all cases: K562; 2-18 h
[1] = target: YES1 (UniProt P07947); experiment: number of time points (of 5) at which kinase-Nluc abundance scored as decreased, DMSO-normalised (count); higher = more persistent destabilization
[2] = target: ZAK (UniProt Q9NYL2); experiment: as above
[3] = target: ZAP70 (UniProt P43403); experiment: as above
[4] = target: CDK4 (UniProt P11802); experiment: number of time points (of 4; 2 h point missing) at which kinase-Nluc abundance scored as decreased, DMSO-normalised (count); higher = more persistent destabilization
[5] = target: CDK7 (UniProt P50613); experiment: as above
[6] = target: CDK9 (UniProt P50750); experiment: as above

Measured: number of time points

CC(C)(C)c1nc2c3cc[nH]c(=O)c3c3cc(F)ccc3c2[nH]1 [Pyridone 6] (10 µM)
0: all assays above

NC(=O)c1ccc2nc(-c3ccc(Oc4ccc(Cl)cc4)cc3)[nH]c2c1 (10 µM)
0: all assays above

COC(=O)c1ccc2c(C(=Nc3ccc(N(C)C(=O)CN4CCN(C)CC4)cc3)c3ccccc3)c(O)[nH]c2c1 [Nintedanib] (2.5 µM)
0: all assays above

O=C(O)CCNC(=O)c1ccc(/N=N/c2ccc(O)c(C(=O)O)c2)cc1 [Balsalazide] (10 µM)
0: all assays above

CCN1CCN(Cc2ccc(C(=O)Nc3ccc(C)c(Oc4ccc5c(c4)CC(=O)N5)c3)cc2C(F)(F)F)CC1 (2.5 µM)
3: [5]
0: [3] | [4]
1: all other assays above

Nc1ncnc2c1c(-c1cccc(OCc3ccccc3)c1)cn2C1CC(CN2CCCC2)C1 (centres undefined) (2.5 µM)
0: all assays above

Cn1c(=O)n(-c2ccc(C(C)(C)C#N)cc2)c2c3cc(-c4cnc5ccccc5c4)ccc3ncc21 [Dactolisib (Tosylate)] (10 µM)
3: [5]
1: [1]
0: all other assays above

CCCn1cnc2c(NCc3ccccc3)nc(NC(CC)CO)nc21 (centres undefined) [Ca2+ channel agonist 1] (2.5 µM)
0: all assays above

CCCCC[C@H](O)CC(=O)CCc1ccc(O)c(OC)c1 [[6]-Gingerol] (10 µM)
0: all assays above

Cn1c(=O)c(Oc2ccc(F)cc2F)cc2cnc(NC3CCOCC3)nc21 [R1487 (Hydrochloride)] (10 µM)
0: all assays above

COc1cc2ncnc(Nc3ccc(O)cc3)c2cc1OC (10 µM)
0: all assays above

COc1cc(OC)c(F)c(COc2cnc(Nc3cnn(CCO)c3)nc2)c1F (2.5 µM)
0: all assays above

Cc1ccc2c(Nc3ccc(Cl)cc3)nccc2c1Nc1ncccc1-c1ncnc2nc[nH]c12 [Raf inhibitor 1] (2.5 µM)
0: all assays above

Cc1cc(N2CCOCC2)cc2[nH]c(-c3c(NC[C@@H](O)c4cccc(Cl)c4)cc[nH]c3=O)nc12 (10 µM)
3: [5]
2: [1]
0: all other assays above

Oc1ccc(-c2nc(-c3ccc(F)cc3)c(-c3ccncc3)[nH]2)cc1 (2.5 µM)
0: all assays above

CNC(=O)c1cccc2cc(Oc3ccnc4cc(OCC5(N)CC5)c(OC)cc34)ccc12 [Lucitanib] (10 µM)
0: all assays above

C=CC(=O)Nc1cccc(Nc2nc(Nc3ccc(OCCOC)cc3)ncc2F)c1 [Spebrutinib] (10 µM)
0: all assays above

O=c1c(-c2ccc(O)cc2)coc2cc(O)cc(O)c12 [Genistein] (10 µM)
0: all assays above

COc1cc2nc(C)nc(N[C@H](C)c3cc(N)cc(C(F)(F)F)c3)c2cc1O[C@H]1CCOC1 (10 µM)
0: all assays above

COc1ccc(Oc2cc(NCCC(F)(F)F)c3ncc(-c4ccc(C(=O)NC5CC5)c(C)c4)n3n2)c(F)c1F (2.5 µM)
0: all assays above

N#C/C(=C\c1ccc(O)c(O)c1)C(=O)NCc1ccccc1 (10 µM)
0: all assays above

CCCCNc1ncc(-c2ccc(CN3CCOCC3)cn2)c(NC2CCC(O)CC2)n1 (centres undefined) (10 µM)
0: all assays above

Already shown: 4 of the compounds above.
COc1cc2nc(C)nc(N[C@H](C)c3cc(N)cc(C(F)(F)F)c3)c2cc1O[C@H]1CCOC1 (10 µM)
0: all assays above

COc1ccc(Oc2cc(NCCC(F)(F)F)c3ncc(-c4ccc(C(=O)NC5CC5)c(C)c4)n3n2)c(F)c1F (2.5 µM)
0: all assays above

N#C/C(=C\c1ccc(O)c(O)c1)C(=O)NCc1ccccc1 (10 µM)
0: all assays above

CCCCNc1ncc(-c2ccc(CN3CCOCC3)cn2)c(NC2CCC(O)CC2)n1 (centres undefined) (10 µM)
0: all assays above

(more compounds)

Cn1nc(C(C)(C)C)cc1NC(=O)Nc1ccc(Oc2ccncc2)cc1 (10 µM)
4: [5]
0: all other assays above

C=CC(=O)N1CCC[C@@H](n2nc(-c3ccc(Oc4ccccc4)cc3)c(C(N)=O)c2N)C1 [Btk inhibitor 2] (10 µM)
0: all assays above
